Laboratory results reported in patent US4948873A, “Gonadoliberine analogues of high activity” (Richter Gedeon Vegyeszeti Gyar, priority 1985, dated 1990).
At least one peptide structure holds a part that was inferred or is arguable (an end, a ring closure or a residue).

System: LH hormone
Assay: LH concentration in the serum of male mice after subcutaneous administration (radioimmunoassay)
Type: in vivo
Details: dose 200 ng/mouse; for LH serum level in mice after the treatments, 2 hours: 2 hours after treatment; for LH serum level in mice after the treatments, 4 hours: 4 hours after treatment; for LH serum level in mice after the treatments, 6 hours: 6 hours after treatment
Procedure: The common feature of the superactive GnRH analogues is that they liberate many times the amount of LH hormone than the natural GnRH could do and the duration of their effect is also much longer. In order to illustrate the above statements the activity for liberating LH hormone of the natural GnRH analogues and some superactive and some representatives of the GnRH analogues of formula I according to the invention are shown in FIG. 1. The experiments were carried out on male mice, the active ingredient was administered subcutaneously and the LH content of the serum of the blood of the animals was measured by radioimmunoassay.
Table I summarizes the biological data of a preferable representative of the GnRH analogues of formula I, Asu^6 -desGly^10 -GnRH-ethylamide.

Structure (SMILES) | LH serum level in mice after the treatments, 2 hours | LH serum level in mice after the treatments, 4 hours | LH serum level in mice after the treatments, 6 hours
CCNC(=O)[C@@H]1CCCN1C(=O)[C@H](CCCNC(=N)N)NC(=O)[C@H](CC(C)C)NC(=O)[C@@H](Cc1ccccc1)NC(=O)[C@H](Cc1ccc(O)cc1)NC(=O)[C@H](CO)NC(=O)[C@H](Cc1c[nH]c2ccccc12)NC(=O)[C@H](Cc1c[nH]cn1)NC(=O)[C@@H]1CCC(=O)N1 [D-Phe^6,desGly^10 -GnRH-ethylamide] | 648.1 ng/mL | 131.5 ng/mL | 67.8 ng/mL
CCNC(=O)[C@@H]1CCCN1C(=O)[C@H](CCCNC(=N)N)NC(=O)[C@H](CC(C)C)NC(=O)[C@@H](COC(C)(C)C)NC(=O)[C@H](Cc1ccc(O)cc1)NC(=O)[C@H](CO)NC(=O)[C@H](Cc1c[nH]c2ccccc12)NC(=O)[C@H](Cc1c[nH]cn1)NC(=O)[C@@H]1CCC(=O)N1 [D-Ser tert-butyl^6, desGly^10 -GnRH-ethylamide] | 1021.3 ng/mL | 81.2 ng/mL | 90.0 ng/mL
